Reference: paper PMC7002685, “Inhibition of vascular calcification by inositol phosphates derivatized with ethylene glycol oligomers” (Nature Communications, 2020)

Assay: In vitro ionized human serum calcium
Format: physicochemical
Conditions: replicates
Protocol: One potential side effect of inositol phosphate-based drugs is toxicity due to chelation of ionized serum calcium. […] At 100 µM (OEG2)2-IP4, 96 ± 2% of control serum-ionized calcium was measured.
To assess reduction in ionized serum calcium, increasing concentrations of test compounds were incubated in human serum (Human AB serum, off-the-clot, HSER-ABPM; LuBioScience GmbH, Zurich, Switzerland) at RT and free ionized calcium levels were measured subsequently by the o-cresolphthalein method using the calcium colorimetric assay.

| Compound | ionized human serum calcium (Figure 4l) (Concentration 100 μM) | ionized human serum calcium (Figure 4l) (Concentration 300 μM) | ionized human serum calcium (Figure 4l) (Concentration 600 μM) | ionized human serum calcium (Figure 4l) (Concentration 1000 μM) |
| --- | --- | --- | --- | --- |
| O=P(O)(O)O[C@H]1[C@H](OP(=O)(O)O)[C@@H](OP(=O)(O)O)[C@H](OP(=O)(O)O)[C@@H](OP(=O)(O)O)[C@H]1OP(=O)(O)O [IP6, myo-Inositol hexakisphosphate] | 94.9032 and 92.4158 and 96.0893 | 86.9409 and 86.4165 and 87.7304 | 79.0817 and 79.8261 and 78.3216 | 63.3946 and 70.0991 and 66.5065 |
| COCCOCCO[C@@H]1[C@@H](OP(=O)(O)O)[C@H](OCCOCCOC)[C@@H](OP(=O)(O)O)[C@@H](OP(=O)(O)O)[C@H]1OP(=O)(O)O [(OEG2)2-IP4, 4,6-Di-O-(methoxy-diethyleneglycol)-myo-inositol-1,2,3,5-tetrakis(phosphate)] | 95.8158 and 93.7695 and 97.7416 | 94.5035 and 88.6419 and 88.9281 | 87.0648 and 84.2142 and 81.1428 | 78.3204 and 76.7951 and 74.0862 |

“And” between values parts separate entries of the source, which are not always exact repeats. Equal entries are not always repeated.
